From US7790687B2, “Treatment for neurodegeneration” (Proximagen Ltd., priority 2005, dated 2010)
Some results come without the dose or concentration used.

Tested on: ED1, OX-42 and GFAP positive cells in the rat SN
Assay: Intranigral LPS injection, gliosis (ED1, OX-42, GFAP immunoreactivity) in the SN
Assay type: in vivo
Conditions: post intranigral LPS injection, injected SN

Substance: lipopolysaccharide [LPS]
- time of peak ED1 positive cell number: 24 h
- time of peak OX-42 positive cell number: 72 h
- time of highest GFAP expression (of the time points studied): 120 h
